The values below come from publication PMC3837162.

Protein sequences, listed by entry. Tags and fused reporters are not part of them.
UniProt P84095: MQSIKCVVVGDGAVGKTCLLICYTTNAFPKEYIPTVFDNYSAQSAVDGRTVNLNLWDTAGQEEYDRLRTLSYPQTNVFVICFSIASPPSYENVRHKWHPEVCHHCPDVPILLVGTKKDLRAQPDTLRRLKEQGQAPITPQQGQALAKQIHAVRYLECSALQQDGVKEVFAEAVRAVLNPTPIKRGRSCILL

No constants are given. Whether binding was seen depends on the method and setting. Binding seen in cells or lysates may run through a third protein. A yes stands for co-enrichment or nearness to the bait. Other partners may have been found.

The assay has as its target GST-RhoG fusion protein (UniProt P84095). Briefly: affinity purification with mass spectrometry; GTPγS-loaded (100 uM) GST-RhoG-Sepharose beads rotated with washed human platelet lysates (500 ul, 5 x 10^8/ml) for 1 h at 4 °C; bound proteins eluted in Laemmli buffer, SDS-PAGE, in-gel tryptic digestion, LTQ Orbitrap Velos; three donors; only the target purified.

B1: Protein S100-A8 (protein, UniProt P05109 1-93)
chain: MLTELEKALNSIIDVYHKYSLIKGNFHAVYRDDLKKLLETECPQYIRKKGADVWFKELDINTDGAVNFQEFLILVIKMGVAAHKKSHEESHKE
Regarding B1, the binding entry is listed as “binds”.

B2: Myosin regulatory light chain 12A (protein, UniProt P19105 1-171)
chain: MSSKRTKTKTKKRPQRATSNVFAMFDQSQIQEFKEAFNMIDQNRDGFIDKEDLHDMLASLGKNPTDEYLDAMMNEAPGPINFTMFLTMFGEKLNGTDPEDVIRNAFACFDEEATGTIQEDYLRELLTTMGDRFTDEEVDELYREAPIDKKGNFNYIEFTRILKHGAKDKDD
Consider B2, for which the binding entry is recorded as “binds”.
